Values from PubChem BioAssay AID504744 (Drosophila RNAi Screening Center, 2011)
Purpose: 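Identify dsRNAs that increase or decrease phospho-dAkt after insulin treatment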 (primary screen). Cells: Drosophila Kc167 cells. Knock-down reagent: long dsRNA against Drosophila genes, 250 ng dsRNA per well of a 384-well plate. Timing: 3 days of knock-down, then overnight serum-free starvation before stimulation. Conditions: bovine insulin at 387 nM for 10 minutes after 12 h without serum. Measured: 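In-cell antibody fluorescence for phospho-dAkt in each well over DNA-dye signal, with log2 residuals expressed as z-scores adjusted for cell count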. Hit rule: 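Under insulin, a gene counts as a hit if the average z-score of two replicates lies above 2.5 or below -2.5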.
In all, the deposit lists about 23,000 reagents; below is a random part of those that have a named target and a result. Of all reagents, 98 (0.43%) are marked active. 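Only hit calls are given; the phospho-dAkt signals, z-scores and hit direction were not deposited.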

l(2)k10201 (lethal (2) k10201) [DRSC06439]
- call: inactive

l(2)k10201 (lethal (2) k10201) [DRSC07640]
- call: inactive

TwdlF (TweedleF) [DRSC12225]
- call: inactive

CG6770 [DRSC02992]
- call: inactive

CG15375 [DRSC18045]
- call: inactive

shams [DRSC16590]
- call: inactive

lectin-37Da [DRSC03278]
- call: inactive

lectin-37Da [DRSC22729]
- call: inactive

CG8501 [DRSC07198]
- call: inactive

Atg8a (Autophagy-related 8a) [DRSC18024]
- call: inactive

CG6788 [DRSC20007]
- call: inactive

CG10598 [DRSC19358]
- call: inactive

gprs [DRSC06761]
- call: inactive

CG32444 [DRSC11677]
- call: inactive

RpL35A (Ribosomal protein L35A) [DRSC12302]
- call: inactive

pot (papillote) [DRSC19850]
- call: inactive

glo (glorund) [DRSC16145]
- call: inactive

CG2680 [DRSC18466]
- call: inactive

Cam (Calmodulin) [DRSC07353]
- call: inactive

Cam (Calmodulin) [DRSC07354]
- call: inactive

ssp7 (short spindle 7) [DRSC18878]
- call: inactive

CG2865 [DRSC18527]
- call: inactive

CG2865 [DRSC18528]
- call: inactive

CG13443 [DRSC06403]
- call: inactive

CG13097 [DRSC02199]
- call: inactive

CG42748 [DRSC03712]
- call: inactive

CG42748 [DRSC03713]
- call: inactive

CG42748 [DRSC03734]
- call: inactive

Rpp25 (Ribonuclease P/MRP subunit p25) [DRSC05002]
- call: inactive

CG10035 [DRSC14177]
- call: inactive

mib2 (mind bomb 2) [DRSC02623]
- call: inactive

TwdlS (TweedleS) [DRSC14737]
- call: inactive

CG8407 [DRSC07167]
- call: inactive

Ccp84Ad [DRSC12589]
- call: inactive

Ccp84Ad [DRSC22854]
- call: inactive

v (vermilion) [DRSC20383]
- call: inactive

CG42544 [DRSC12451]
- call: inactive

EloA (Elongin A) [DRSC16109]
- call: inactive

CG32280 [DRSC08024]
- call: inactive

LysRS (Lysyl-tRNA synthetase) [DRSC17824]
- call: inactive

CG17304 (retired record) [DRSC15222]
- call: inactive

bru2 (bruno 2) [DRSC01246]
- call: inactive

bru2 (bruno 2) [DRSC01247]
- call: inactive

bru2 (bruno 2) [DRSC01249]
- call: inactive

bru2 (bruno 2) [DRSC01250]
- call: inactive

bru2 (bruno 2) [DRSC02557]
- call: inactive

Cep290 (Centrosomal protein 290kDa) [DRSC08359]
- call: inactive

mRpL2 (mitochondrial ribosomal protein L2) [DRSC10896]
- call: inactive

CG7518 [DRSC16253]
- call: inactive

CG5681 [DRSC02876]
- call: inactive

CG31300 [DRSC14657]
- call: inactive

Strip (Striatin interacting protein) [DRSC08194]
- call: inactive

Acp1 (Adult cuticle protein 1) [DRSC01854]
- call: inactive

nonA-l (nonA-like) [DRSC17017]
- call: inactive

CG11686 [DRSC14350]
- call: inactive

LManI (Lysosomal alpha-mannosidase I) [DRSC02838]
- call: inactive

CG31267 [DRSC15748]
- call: inactive

hng1 (hinge1) [DRSC04555]
- call: inactive

CG6885 [DRSC10740]
- call: inactive

CG7997 [DRSC07052]
- call: inactive

CG15657 [DRSC04248]
- call: inactive

CG30026 [DRSC05276]
- call: inactive

CG8112 [DRSC16377]
- call: inactive

Gdap1 [DRSC10437]
- call: inactive

CG13791 (retired record) [DRSC02295]
- call: inactive

CG7208 [DRSC16212]
- call: inactive

PpV (Protein phosphatase V) [DRSC18700]
- call: inactive

CG14406 [DRSC19592]
- call: inactive

Adat1 (Adenosine deaminase, tRNA-specific 1) [DRSC03479]
- call: inactive

Tao [DRSC19573]
- call: inactive

Tao [DRSC19574]
- call: inactive

Tao [DRSC22639]
- call: inactive

elB (elbow B) [DRSC01379]
- call: inactive

elB (elbow B) [DRSC03527]
- call: inactive

12 entries from above, reformatted.
{"target gene":"CG30026","dsRNA":"DRSC05276","call":"inactive"}
{"target gene":"CG8112","dsRNA":"DRSC16377","call":"inactive"}
{"target gene":"Gdap1","dsRNA":"DRSC10437","call":"inactive"}
{"target gene":"CG13791 (retired record)","dsRNA":"DRSC02295","call":"inactive"}
{"target gene":"CG7208","dsRNA":"DRSC16212","call":"inactive"}
{"target gene":"PpV (Protein phosphatase V)","dsRNA":"DRSC18700","call":"inactive"}
{"target gene":"CG14406","dsRNA":"DRSC19592","call":"inactive"}
{"target gene":"Adat1 (Adenosine deaminase, tRNA-specific 1)","dsRNA":"DRSC03479","call":"inactive"}
{"target gene":"Tao","dsRNA":"DRSC19573","call":"inactive"}
{"target gene":"Tao","dsRNA":"DRSC19574","call":"inactive"}
{"target gene":"Tao","dsRNA":"DRSC22639","call":"inactive"}
{"target gene":"elB (elbow B)","dsRNA":"DRSC01379","call":"inactive"}
